Paper doi:10.1101/2024.05.30.596635
No constants are given. Whether binding was seen depends on the method and setting. In cells and extracts the contact can be indirect. Some results given as binding are weak or reduced against the parent protein; the word gives no strength.

Protein sequences, listed by entry. Tags and fused reporters are not part of them.
UniProt Q16613: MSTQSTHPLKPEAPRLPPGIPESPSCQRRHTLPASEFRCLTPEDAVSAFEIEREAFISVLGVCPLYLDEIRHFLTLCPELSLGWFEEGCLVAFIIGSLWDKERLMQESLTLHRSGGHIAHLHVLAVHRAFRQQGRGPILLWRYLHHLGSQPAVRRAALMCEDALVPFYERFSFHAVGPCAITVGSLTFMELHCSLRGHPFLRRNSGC

T1: acetylserotonin O-methyltransferase (human (endogenous in platelets)) (UniProt P46597)
T1 sequence: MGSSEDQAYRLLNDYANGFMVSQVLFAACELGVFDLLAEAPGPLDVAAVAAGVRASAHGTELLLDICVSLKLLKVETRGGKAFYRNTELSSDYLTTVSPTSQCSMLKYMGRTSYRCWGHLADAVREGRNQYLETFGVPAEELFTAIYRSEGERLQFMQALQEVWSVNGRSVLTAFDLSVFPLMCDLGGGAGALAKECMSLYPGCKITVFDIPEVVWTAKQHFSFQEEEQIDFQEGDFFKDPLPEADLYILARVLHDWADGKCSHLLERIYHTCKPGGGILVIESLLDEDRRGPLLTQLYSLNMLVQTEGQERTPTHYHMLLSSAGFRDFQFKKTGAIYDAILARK

B1: acetylserotonin O-methyltransferase (enzyme, UniProt P46597 1-345)
chain: T1 sequence

What was measured:
[1] = target: T1, acetylserotonin O-methyltransferase (human (endogenous in platelets)); test: co-IP + native MS
[2] = target: aralkylamine N-acetyltransferase (human (endogenous in platelets)) (UniProt Q16613); test: co-IP + native MS

Molecule | binding [1] | binding [2]
aralkylamine N-acetyltransferase (from UniProt Q16613 1-207) (enzyme) | binds | –
B1 | – | binds
